Experimental data as given in patent US20150164855A1, “KETONE BODIES AND KETONE BODY ESTERS FOR MAINTAINING OR IMPROVING MUSCLE POWER OUTPUT” (priority 2012, published 2015).
Entries after “also recorded” stand apart in the source; their conditions may differ.

Experiment: Flavour of ketone bodies assessed by a tasting panel
[1] = ~100 microliters tasted by panel of 8 tasters, qualitative bitterness, Ketones 1 to 8

Which Flavour [1] does the source give for `CC(O)CC(=O)OCC(COC(=O)CC(C)O)OC(=O)CC(C)O` (stereo not shown) [Ketone 5] here?
Its Flavour is “bitter”.

For `CC(O)CC(=O)OCCC(C)OC(=O)CC(C)O` (stereo not shown) [Ketone 7], which Flavour [1] is on record?
The Flavour was “very unpleasant although not bitter”.

With `CC(O)CC(=O)OC(C)CC(=O)OC(C)CC(=O)OCC[C@@H](C)OC(=O)CC(C)OC(=O)CC(C)OC(=O)CC(C)O` (stereo partly drawn) [Ketone 10, (R)-1,3-butanediol ditriolide ester] as the compound, how does the Flavour (tasted in the same manner as Ketones 1 to 8, Ketones 9 to 13) read?
The Flavour was “aversive flavour; also recorded: aversive to taste”.

And the Flavour (tasted in the same manner as Ketones 1 to 8, Ketones 9 to 13, listed as R 1,3 butandiol di triolide ester)?
The Flavour was “aversive to taste”.

For “(R)-3-hydroxybutyrate-(R)-1,3-butanediol [Ketone 8]”, which Flavour (tasted in the same manner as Ketones 1 to 8, Ketones 9 to 13, listed as 8/13) is on record?
The Flavour was “Not bitter, non-aversive”.

And the Flavour (tasted in the same manner as Ketones 1 to 8, Ketones 9 to 13, listed as (R)-3-hydroxybutyrate-R-1,3-butanediol monoester)?
Its Flavour is “non-aversive to taste”.

And the Flavour [1]?
Its Flavour is “acceptable flavour”.
